# Measurements reported in the supplement of paper PMC8104966.
# Where “and” joins values, the source holds several entries; their conditions need not be identical. Identical values can stand only once. The list shows a part of the results. Repeats in this data set agree poorly, so a single value says little.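 Fusion between ACE2-bearing and full-length-spike-bearing U2OS cells was measured by imaging as the percentage of nuclei with both cell types' fluorescent markers. An inhibitory hit is a non-toxic compound whose fusion z-score is below -3, more than three standard deviations beneath the plate's DMSO wells.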
# System: U2OS ACE2 x SARS-CoV-2 spike co-culture
# Assay: cell-cell fusion (fraction fused) z-score vs plate DMSO control; higher = more fusion
# Conditions: 30 µM; 5 h; toxicity class: non-toxic, passed QC
row,Structure (SMILES),cell-cell fusion (z-score)
1,CC(=O)O[C@@H]1C[C@@]2(C)C(CC[C@@H]2C(C)=O)C2CCC3=CC(=O)CC[C@]3(C)C21 (stereo partly specified),inactive: 2.15
2,CN1CCCC(n2nc(Cc3ccc(Cl)cc3)c3ccccc3c2=O)CC1.Cl (stereo unspecified) [Azelastine hydrochloride],inactive: 1.65
3,C[N+](C)(C)CCO.Cn1c(=O)c2[n-]cnc2n(C)c1=O,inactive: -0.634
4,Cl.Cl.Cl.Cl.NCCCNCCCCNCCCN [Spermine tetrahydrochloride],inactive: 1.86
5,CCNc1nc2c(ncn2[C@H]2C[C@H](O)[C@@H](CO)O2)c(=O)[nH]1 [N2-Ethyl-2'-deoxyguanosine],inactive: 1.48
6,C[C@]12CC[C@@H]3c4ccc(O)cc4CC[C@H]3[C@@H]1CC[C@@H]2OC(=O)CCC1CCCC1 [Depofemin],inactive: 3.18
7,CN(C)CCC(c1ccc(Br)cc1)c1ccccn1.O=C(O)/C=C\C(=O)O (stereo unspecified),inactive: 1.19
8,CN(C)CC/C=C1\c2ccccc2COc2ccccc21.Cl [Doxepin hydrochloride],inactive: 2.51
9,COC1=C(OC)C(=O)C(C/C=C(\C)CC/C=C(\C)CC/C=C(\C)CC/C=C(\C)CC/C=C(\C)CC/C=C(\C)CC/C=C(\C)CC/C=C(\C)CC/C=C(\C)CCC=C(C)C)=C(C)C1=O [Coenzyme Q10(CoQ10)],inactive: 0.725
10,Cc1cn(C2CC(N=[N+]=[N-])C(CO)O2)c(=O)[nH]c1=O (stereo unspecified),inactive: 2.24
11,Cl.Cl.Fc1cc(-c2cccc3ncc(-c4cnn(C5CCNCC5)c4)nc23)cc(F)c1CN1CCOCC1,inactive: 1.38 and inactive: 2.13
12,C=C1C[C@@H]2[C@H](CC[C@]3(C)C(=O)CC[C@@H]23)[C@@]2(C)C=CC(=O)C=C12 [Exemestane],inactive: 0.721
13,COc1ccc([C@H]2COc3c(ccc(O)c3OC)C2)c(OC)c1O,inactive: 2.3
14,CC(C)CC(=O)Nc1n[nH]c2c1CN(C(=O)C1CCN(C)CC1)C2(C)C,inactive: 2.09
15,CC(C)CN(C[C@@H](O)[C@H](Cc1ccccc1)NC(=O)O[C@H]1CCOC1)S(=O)(=O)c1ccc(N)cc1 [Amprenavir],inactive: 2.3
16,Cn1c([N+](=O)[O-])cnc1COC(N)=O,inactive: 3.14
17,O=C1OC(c2ccc(O)cc2)(c2ccc(O)cc2)c2ccccc21,inactive: 2.74
18,NS(=O)(=O)c1ccc(-n2nc(C(F)(F)F)cc2-c2ccc(Cl)cc2)cc1,inactive: 1.87
19,CC[C@H](c1cccc(O)c1)[C@@H](C)CN(C)C.Cl,inactive: 2.56
20,CS(=O)(=O)O.OC(CCN1CCCCC1)(c1ccccc1)c1ccccc1,inactive: 2.36
21,CC(=O)OCC(=O)[C@@]1(O)CC[C@H]2[C@@H]3CCC4=CC(=O)C=C[C@]4(C)[C@H]3[C@@H](O)C[C@@]21C [Prednisolone-21-acetate],inactive: 1.95
22,COc1cc(SC)ccc1C(=O)N1CCC(Cc2ccccc2)CC1,inactive: 3.05
23,NC[C@@H]1O[C@H](O[C@H]2[C@@H](O)[C@H](O[C@@H]3[C@@H](O)[C@H](N)C[C@H](N)[C@H]3O[C@H]3O[C@H](CN)[C@@H](O)[C@H](O)[C@H]3N)O[C@@H]2CO)[C@H](N)[C@@H](O)[C@@H]1O.O=S(=O)(O)O [Neomycin Sulphate B],inactive: 2.11
24,Nc1c2c(nc3ccccc13)CCCC2O.O=C(O)/C=C\C(=O)O (stereo unspecified),inactive: 1.68

row,Structure (SMILES),cell-cell fusion (z-score)
1,S=C([S-])OC1CC2CC1C1CCCC21.[K+] [D-609 potassium],active: -4.12
2,CCCCC(=O)O[C@H]1CCC2C3CCc4cc(O)ccc4C3CC[C@@]21C (stereo partly specified),inactive: 1.23
3,COc1ccc(C2CNC(=O)C2)cc1OC1CCCC1 (stereo unspecified) [Rolipram],inactive: 0.997
4,CN(C)CC[C@@H](c1ccc(Cl)cc1)c1ccccn1.O=C(O)/C=C\C(=O)O [Dexchlorpheniramine Maleate],inactive: 1.92
5,COc1ccccc1OCC(O)CN1CCN(CC(=O)Nc2c(C)cccc2C)CC1.Cl.Cl (stereo unspecified) [Ranolazine dihydrochloride],inactive: 2.07
6,C[C@H]1COC2=C1C(=O)C(=O)c1c2ccc2c1CCCC2(C)C,inactive: 1.9
7,CC(C)(C#N)c1cc(Cn2cncn2)cc(C(C)(C)C#N)c1 [Anastrozole],inactive: 4.26
8,O=c1n(Cl)c(=O)n(Cl)c(=O)n1Cl,inactive: 0.81
9,"CCOc1ccc(Cc2cc([C@@H]3O[C@H](CO)[C@@H](O)[C@H](O)[C@H]3O)ccc2Cl)cc1.C[C@H](O)CO.O [Dapagliflozin ((2S)-1,2-propanediol, hydrate)]",inactive: 1.37
10,N.N.[Cl][Pt][Cl] [Cisplatin] [listing 1 of 2 here],inactive: 1.81
11,OCc1ccccn1,inactive: 0.434
12,O=C(NCCCN1CCOCC1)c1ccc(Cl)cc1,inactive: 2.13
13,CNS(=O)(=O)CCc1ccc2[nH]cc(C3CCN(C)CC3)c2c1.Cl [Naratriptan hydrochloride],inactive: 1.83
14,O=C(OC[C@H]1O[C@@H](OC(=O)c2cc(O)c(O)c(OC(=O)c3cc(O)c(O)c(O)c3)c2)[C@H](OC(=O)c2cc(O)c(O)c(OC(=O)c3cc(O)c(O)c(O)c3)c2)[C@@H](OC(=O)c2cc(O)c(O)c(OC(=O)c3cc(O)c(O)c(O)c3)c2)[C@@H]1OC(=O)c1cc(O)c(O)c(OC(=O)c2cc(O)c(O)c(O)c2)c1)c1cc(O)c(O)c(OC(=O)c2cc(O)c(O)c(O)c2)c1 [Tannic acid],inactive: 1.05
15,C[N+](C)(C)CCOC(=O)CCC(=O)OCC[N+](C)(C)C.O.O.[Cl-].[Cl-] [Succinylcholine Chloride Dihydrate],inactive: 2.06
16,O=C1CC[C@@H](C(=O)O)N1,inactive: 2.77
17,O=c1c(O)cccc2ccc(O)c(O)c12,inactive: 0.419
18,CC(=O)SCC(Cc1ccccc1)C(=O)NCC(=O)OCc1ccccc1 (stereo unspecified),inactive: 1.96
19,COc1cc2ncnc(Nc3ccc(Oc4ccccc4)cc3)c2cc1OC,inactive: 1.9
20,CCOc1cc(C=O)ccc1O,inactive: -0.0994
21,CC1(C)O[C@@H]2CC3C4CCC5=CC(=O)C=C[C@]5(C)[C@@]4(F)[C@@H](O)C[C@]3(C)[C@]2(C(=O)CO)O1 (stereo partly specified),inactive: -0.992
22,CCS(=O)(=O)N1CC(CC#N)(n2cc(-c3ncnc4[nH]ccc34)cn2)C1 [Baricitinib],inactive: -0.422
23,COC(=O)Nc1nc2ccc(Sc3ccccc3)cc2[nH]1,inactive: 3.23
24,CC(C)(O)C(Cl)(Cl)Cl,inactive: 2.81

row,Structure (SMILES),cell-cell fusion (z-score)
1,CNCCNS(=O)(=O)c1cccc2cnccc12.Cl.Cl [H-8 dihydrochloride],inactive: 2.7
2,CN1[C@H]2C[C@H](OC(=O)[C@H](CO)c3ccccc3)C[C@@H]1[C@@H](O)C2 (racemic) [(+/-)-Anisodamine],inactive: 2.46
3,CC(=O)Oc1ccc2c(C)cc(=O)oc2c1,inactive: 2.04
4,Nc1ccn(C2O[C@H](CO)[C@@H](O)[C@H]2O)c(=O)n1 (stereo partly specified),inactive: 2.59
5,O=C(O)CCCN1CCC(O[C@@H](c2ccc(Cl)cc2)c2ccccn2)CC1.O=S(=O)(O)c1ccccc1 [Bepotastine Besilate],inactive: 1.28
6,CCCCNc1cc(C(=O)O)cc(S(N)(=O)=O)c1Oc1ccccc1 [Bumetanide],inactive: 2.08
7,Cc1cc(Cl)ccc1OCCCC(=O)NO [Droxinostat],inactive: 0.0624
8,CNC(=O)c1cc(Oc2ccc(NC(=O)Nc3ccc(Cl)c(C(F)(F)F)c3)c(F)c2)ccn1 [Regorafenib (BAY 73-4506)],inactive: 1.52
9,NC(=O)c1ccccc1O,inactive: 0.359
10,Cc1ncc([N+](=O)[O-])n1CCO,inactive: 0.599
11,NNC(=O)c1ccncc1,inactive: -0.639
12,CCCCOC(=O)c1ccc(O)cc1,inactive: 2.28
13,CC1(C)CCC2=C(O1)c1ccccc1C(=O)C2=O [beta-Lapachone],inactive: -0.476
14,CC1(C)CCC2=C(O1)c1ccccc1C(=O)C2=O [beta-LAPACHONE],inactive: -2.6
15,Cc1[nH]c2ccccc2c1CCNCc1ccc(/C=C/C(=O)NO)cc1 [Panobinostat],inactive: 1.98
16,COC(=O)[C@H]1[C@H]2C[C@@H]3c4[nH]c5cc(OC)ccc5c4CCN3C[C@H]2C[C@@H](OC(=O)c2cc(OC)c(OC)c(OC)c2)[C@@H]1OC [Reserpine],inactive: 1.27
17,CC(C)OC(=O)C1=CN(C(=O)c2ccc(F)c(F)c2)CC(C)(C)c2c1[nH]c1ccccc21,inactive: 1.98
18,O=C([O-])Cc1ccccc1Nc1c(Cl)cccc1Cl.[K+] [Diclofenac Potassium],inactive: 2.67
19,CCOc1ccc2ccccc2c1NC(=O)[C@@H]1C(=O)N2C(C(=O)[O-])C(C)(C)S[C@H]12.[Na+] (stereo partly specified),inactive: 0.445
20,"Oc1cccc2c(O)nccc12 [1,5-Isoquinolinediol]",inactive: 1.15
21,N.N.[Cl][Pt][Cl] [Cisplatin] [listing 2 of 2 here],inactive: 0.564
22,N.N.[Cl][Pt][Cl],inactive: 0.609
23,"O=Nc1ccc2oc(=O)ccc2c1 [6-Nitroso-1,2-benzopyrone]",inactive: 2.8
